# No constants are given. Whether binding was seen depends on the method and setting. Binding seen in cells or lysates may run through a third protein. Some results given as binding are weak or reduced against the parent protein; the word gives no strength.
# By UniProt entry, the sequences of proteins in these tests, tags left out.
# UniProt Q8WZA2: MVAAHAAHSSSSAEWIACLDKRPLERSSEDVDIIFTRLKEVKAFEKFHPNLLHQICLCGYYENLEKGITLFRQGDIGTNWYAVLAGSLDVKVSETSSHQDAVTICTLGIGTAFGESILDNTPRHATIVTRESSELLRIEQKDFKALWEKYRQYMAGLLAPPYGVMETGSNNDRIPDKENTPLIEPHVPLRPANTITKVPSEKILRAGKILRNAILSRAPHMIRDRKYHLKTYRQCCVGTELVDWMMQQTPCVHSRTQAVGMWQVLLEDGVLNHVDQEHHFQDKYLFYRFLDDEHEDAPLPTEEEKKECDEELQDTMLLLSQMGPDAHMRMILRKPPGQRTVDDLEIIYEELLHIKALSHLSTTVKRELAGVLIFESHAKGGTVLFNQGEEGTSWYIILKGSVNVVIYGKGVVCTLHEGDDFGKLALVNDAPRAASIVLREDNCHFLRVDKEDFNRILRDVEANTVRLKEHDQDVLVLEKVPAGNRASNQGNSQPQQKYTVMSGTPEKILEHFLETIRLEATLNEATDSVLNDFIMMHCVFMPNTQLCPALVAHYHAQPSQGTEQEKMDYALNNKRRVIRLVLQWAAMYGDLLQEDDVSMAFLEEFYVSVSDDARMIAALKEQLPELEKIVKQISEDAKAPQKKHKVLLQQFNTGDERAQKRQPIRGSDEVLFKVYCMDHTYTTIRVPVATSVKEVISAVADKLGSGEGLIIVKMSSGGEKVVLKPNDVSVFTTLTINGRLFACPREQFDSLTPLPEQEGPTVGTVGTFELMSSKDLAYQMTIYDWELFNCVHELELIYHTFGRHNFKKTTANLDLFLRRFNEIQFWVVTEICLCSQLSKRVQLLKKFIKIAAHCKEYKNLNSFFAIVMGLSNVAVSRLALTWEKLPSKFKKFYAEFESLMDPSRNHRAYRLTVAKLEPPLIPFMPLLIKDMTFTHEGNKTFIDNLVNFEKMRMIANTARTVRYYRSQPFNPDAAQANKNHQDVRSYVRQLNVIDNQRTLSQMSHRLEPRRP
# Molecular target: T1, RNA methyltransferase nucleolar protein p120 (NOP2) (human) (UniProt P46087)
# T1 sequence: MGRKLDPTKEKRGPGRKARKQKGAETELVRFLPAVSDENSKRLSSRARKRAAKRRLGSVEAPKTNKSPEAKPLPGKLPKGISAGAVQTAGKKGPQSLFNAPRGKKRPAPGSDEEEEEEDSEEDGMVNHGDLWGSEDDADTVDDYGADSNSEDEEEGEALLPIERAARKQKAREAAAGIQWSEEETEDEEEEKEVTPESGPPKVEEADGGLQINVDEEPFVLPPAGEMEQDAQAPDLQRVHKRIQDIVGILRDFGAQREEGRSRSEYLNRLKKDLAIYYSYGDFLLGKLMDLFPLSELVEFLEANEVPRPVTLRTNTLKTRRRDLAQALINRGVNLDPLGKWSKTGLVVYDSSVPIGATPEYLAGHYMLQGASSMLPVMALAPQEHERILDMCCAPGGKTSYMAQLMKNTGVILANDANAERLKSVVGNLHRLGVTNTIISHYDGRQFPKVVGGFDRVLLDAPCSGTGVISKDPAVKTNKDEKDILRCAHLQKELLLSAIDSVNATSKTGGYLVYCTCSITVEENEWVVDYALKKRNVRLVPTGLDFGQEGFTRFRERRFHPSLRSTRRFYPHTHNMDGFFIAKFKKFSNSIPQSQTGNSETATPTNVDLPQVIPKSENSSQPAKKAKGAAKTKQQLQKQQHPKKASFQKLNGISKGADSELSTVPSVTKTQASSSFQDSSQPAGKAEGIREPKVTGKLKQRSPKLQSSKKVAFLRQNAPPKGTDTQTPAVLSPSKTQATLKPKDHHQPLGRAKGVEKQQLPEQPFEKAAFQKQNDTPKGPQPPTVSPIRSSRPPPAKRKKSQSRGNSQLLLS
# Assay: co-IP; lysate of Hey cells overexpressing NOP2 and RAPGEF4; anti-NOP2 antibody (ab271075, 1:30) on Protein A+G magnetic beads, incubated overnight at 4°C; detected by Western blot
substance,measurement,value
Rap guanine nucleotide exchange factor 4 (RAPGEF4) (from UniProt Q8WZA2 1-1011),binding,binds

# — PMC10561575
